Results published in patent publication US20110172099A1, “Imidazole and Triazole Compounds, Their Use and Agents Containing the Same” (BASF SE, priority 2008, published 2011).
Some results were stated once for a whole list of compounds, not compound by compound.

Tested on: Botrytis cinerea
Assay: Example G1: gray mold on bell pepper leaves caused by Botrytis cinerea, 1 day protective application (greenhouse)
Assay type: in vivo
Conditions: 600 ppm, bell pepper seedlings, assessed visually after 5 days, untreated plants 90% infected

With CC(Cc1cccc(Cl)c1Cl)CC(C(O)C(C)(C)C)n1cncn1 (stereo not shown) [I.A29a, 7-(2,3-dichlorophenyl)-2,2,6-trimethyl-4-[1,2,4]triazol-1-ylheptan-3-ol] the infection was “at most 15%”.
